Source: the supplement of paper PMC12823440, “Inhibitors supercharge kinase turnover through native proteolytic circuits” (Nature, 2025)
Structures can show the parent of a compound that is named as a salt. Some of the results follow. Hit calls seldom repeat between salt and free forms of one compound.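 Kinases were expressed as nanoluciferase fusions in K562 cells and luminescence was read every 4 h between 2 and 18 h as percent of control, DMSO set to 100% and a positive control to 0%. A time point counts as decreased when the signal drops significantly (2 sigma). The hit call is the authors' own, does not follow from the count of time points alone, and its rule is not shown.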

Sequences of proteins named here, by UniProt entry; tags and fusion partners are left off. A change or cut given only in a name is not applied to a line headed by its entry.
UniProt P10398: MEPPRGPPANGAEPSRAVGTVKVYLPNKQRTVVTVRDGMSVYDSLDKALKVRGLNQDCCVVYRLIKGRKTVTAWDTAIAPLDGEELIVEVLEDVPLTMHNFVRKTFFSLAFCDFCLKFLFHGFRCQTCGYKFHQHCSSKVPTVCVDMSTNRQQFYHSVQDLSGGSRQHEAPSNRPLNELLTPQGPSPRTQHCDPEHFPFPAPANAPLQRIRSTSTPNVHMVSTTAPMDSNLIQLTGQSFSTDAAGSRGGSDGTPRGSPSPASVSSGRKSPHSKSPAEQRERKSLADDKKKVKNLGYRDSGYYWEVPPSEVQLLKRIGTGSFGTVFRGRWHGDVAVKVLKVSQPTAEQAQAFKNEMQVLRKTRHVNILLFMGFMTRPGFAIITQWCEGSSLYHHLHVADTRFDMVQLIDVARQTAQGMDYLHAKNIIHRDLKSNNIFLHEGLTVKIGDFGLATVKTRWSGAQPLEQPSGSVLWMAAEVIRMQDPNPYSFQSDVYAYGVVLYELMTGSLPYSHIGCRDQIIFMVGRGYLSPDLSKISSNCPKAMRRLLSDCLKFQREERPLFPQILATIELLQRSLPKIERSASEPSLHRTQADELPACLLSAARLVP
UniProt O14965: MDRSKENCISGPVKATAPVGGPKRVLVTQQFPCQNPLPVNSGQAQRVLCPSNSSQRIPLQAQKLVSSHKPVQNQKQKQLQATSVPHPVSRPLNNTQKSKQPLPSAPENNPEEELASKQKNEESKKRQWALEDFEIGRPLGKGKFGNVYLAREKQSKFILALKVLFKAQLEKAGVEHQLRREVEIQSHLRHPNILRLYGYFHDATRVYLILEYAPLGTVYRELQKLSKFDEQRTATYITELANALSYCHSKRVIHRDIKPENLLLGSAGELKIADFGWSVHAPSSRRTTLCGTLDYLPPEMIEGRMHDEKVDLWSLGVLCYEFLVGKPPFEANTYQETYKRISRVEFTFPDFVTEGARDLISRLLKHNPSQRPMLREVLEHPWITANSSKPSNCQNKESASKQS
UniProt Q96GD4, whole entry: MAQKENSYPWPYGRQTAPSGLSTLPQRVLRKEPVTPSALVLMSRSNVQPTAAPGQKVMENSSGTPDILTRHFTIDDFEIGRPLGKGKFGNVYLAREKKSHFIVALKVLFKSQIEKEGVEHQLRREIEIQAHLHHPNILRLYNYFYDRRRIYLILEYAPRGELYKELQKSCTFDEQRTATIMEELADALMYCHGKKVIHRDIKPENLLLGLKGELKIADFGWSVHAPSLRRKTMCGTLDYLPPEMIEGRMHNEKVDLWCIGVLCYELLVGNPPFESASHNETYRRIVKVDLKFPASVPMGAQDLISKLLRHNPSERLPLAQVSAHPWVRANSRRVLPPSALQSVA
UniProt Q9UQB9: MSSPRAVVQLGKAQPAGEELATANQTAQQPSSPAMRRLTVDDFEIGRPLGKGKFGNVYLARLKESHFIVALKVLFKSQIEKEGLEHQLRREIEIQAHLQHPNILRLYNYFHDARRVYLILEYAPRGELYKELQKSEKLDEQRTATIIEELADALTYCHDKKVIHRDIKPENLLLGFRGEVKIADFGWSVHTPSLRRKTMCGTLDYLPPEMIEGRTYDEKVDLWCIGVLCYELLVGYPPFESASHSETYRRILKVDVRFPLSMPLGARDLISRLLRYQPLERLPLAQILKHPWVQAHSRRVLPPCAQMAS
UniProt P51813: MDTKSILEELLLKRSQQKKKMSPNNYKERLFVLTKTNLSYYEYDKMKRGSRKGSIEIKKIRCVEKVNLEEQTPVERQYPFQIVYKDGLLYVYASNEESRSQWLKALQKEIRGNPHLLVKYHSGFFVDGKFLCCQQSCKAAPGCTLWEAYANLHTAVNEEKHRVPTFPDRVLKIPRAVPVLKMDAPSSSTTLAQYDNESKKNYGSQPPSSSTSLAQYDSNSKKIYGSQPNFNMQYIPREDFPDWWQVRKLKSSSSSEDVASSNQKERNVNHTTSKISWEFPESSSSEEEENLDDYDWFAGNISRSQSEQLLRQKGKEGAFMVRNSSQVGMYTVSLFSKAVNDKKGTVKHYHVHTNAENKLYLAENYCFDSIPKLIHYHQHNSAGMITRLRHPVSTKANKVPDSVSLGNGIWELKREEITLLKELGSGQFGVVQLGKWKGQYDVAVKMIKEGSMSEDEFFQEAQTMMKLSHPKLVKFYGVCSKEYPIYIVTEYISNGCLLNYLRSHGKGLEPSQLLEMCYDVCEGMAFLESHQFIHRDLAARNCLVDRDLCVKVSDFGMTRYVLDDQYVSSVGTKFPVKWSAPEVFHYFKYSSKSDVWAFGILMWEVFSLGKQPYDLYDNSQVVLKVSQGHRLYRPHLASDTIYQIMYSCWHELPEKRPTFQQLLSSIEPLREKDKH
UniProt P15056, whole entry, looked up: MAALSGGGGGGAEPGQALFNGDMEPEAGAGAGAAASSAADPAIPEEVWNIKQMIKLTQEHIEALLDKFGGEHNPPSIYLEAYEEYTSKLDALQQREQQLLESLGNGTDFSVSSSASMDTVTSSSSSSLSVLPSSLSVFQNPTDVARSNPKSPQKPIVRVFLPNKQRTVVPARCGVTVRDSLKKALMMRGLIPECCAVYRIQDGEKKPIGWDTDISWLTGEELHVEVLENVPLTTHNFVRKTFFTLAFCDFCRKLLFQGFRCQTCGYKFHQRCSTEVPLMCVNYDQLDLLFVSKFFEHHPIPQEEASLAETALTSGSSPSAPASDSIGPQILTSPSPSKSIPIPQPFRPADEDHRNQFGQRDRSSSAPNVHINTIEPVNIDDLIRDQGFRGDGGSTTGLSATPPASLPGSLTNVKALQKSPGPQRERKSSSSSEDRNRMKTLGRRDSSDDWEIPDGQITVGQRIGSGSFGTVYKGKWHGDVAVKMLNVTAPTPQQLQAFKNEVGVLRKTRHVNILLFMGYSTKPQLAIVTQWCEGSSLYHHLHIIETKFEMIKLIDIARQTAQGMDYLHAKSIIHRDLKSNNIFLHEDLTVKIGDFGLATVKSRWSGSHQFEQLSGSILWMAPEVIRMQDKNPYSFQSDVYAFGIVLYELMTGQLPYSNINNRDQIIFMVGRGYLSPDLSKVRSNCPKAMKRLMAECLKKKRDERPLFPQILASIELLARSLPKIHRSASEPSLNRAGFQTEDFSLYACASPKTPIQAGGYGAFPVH
UniProt Q9UQM7, whole entry: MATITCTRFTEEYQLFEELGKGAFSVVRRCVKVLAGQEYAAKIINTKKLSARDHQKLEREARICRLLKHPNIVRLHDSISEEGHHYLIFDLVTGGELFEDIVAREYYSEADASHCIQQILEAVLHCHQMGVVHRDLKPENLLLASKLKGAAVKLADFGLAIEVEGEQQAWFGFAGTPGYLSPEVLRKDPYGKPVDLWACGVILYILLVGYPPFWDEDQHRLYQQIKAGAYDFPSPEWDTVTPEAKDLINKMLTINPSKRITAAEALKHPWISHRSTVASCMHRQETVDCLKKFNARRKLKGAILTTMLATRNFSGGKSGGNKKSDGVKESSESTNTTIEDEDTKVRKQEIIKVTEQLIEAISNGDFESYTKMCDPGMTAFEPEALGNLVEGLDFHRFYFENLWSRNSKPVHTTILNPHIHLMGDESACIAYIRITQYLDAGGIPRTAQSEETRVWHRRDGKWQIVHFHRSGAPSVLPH
UniProt Q13555: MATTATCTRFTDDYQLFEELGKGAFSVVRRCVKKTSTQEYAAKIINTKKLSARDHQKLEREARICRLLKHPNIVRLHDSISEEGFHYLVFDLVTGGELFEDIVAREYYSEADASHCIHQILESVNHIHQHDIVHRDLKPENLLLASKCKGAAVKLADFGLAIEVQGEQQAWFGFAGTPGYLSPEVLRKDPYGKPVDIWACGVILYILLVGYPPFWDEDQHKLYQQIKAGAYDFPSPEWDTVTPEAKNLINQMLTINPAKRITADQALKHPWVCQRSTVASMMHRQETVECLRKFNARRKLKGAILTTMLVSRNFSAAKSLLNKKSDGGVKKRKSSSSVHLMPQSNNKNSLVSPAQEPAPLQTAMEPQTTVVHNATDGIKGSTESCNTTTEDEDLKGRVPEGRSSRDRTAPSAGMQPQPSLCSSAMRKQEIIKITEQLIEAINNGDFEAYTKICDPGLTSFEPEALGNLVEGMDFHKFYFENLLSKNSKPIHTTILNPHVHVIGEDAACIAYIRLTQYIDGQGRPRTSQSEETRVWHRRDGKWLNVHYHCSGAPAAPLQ
UniProt Q15131: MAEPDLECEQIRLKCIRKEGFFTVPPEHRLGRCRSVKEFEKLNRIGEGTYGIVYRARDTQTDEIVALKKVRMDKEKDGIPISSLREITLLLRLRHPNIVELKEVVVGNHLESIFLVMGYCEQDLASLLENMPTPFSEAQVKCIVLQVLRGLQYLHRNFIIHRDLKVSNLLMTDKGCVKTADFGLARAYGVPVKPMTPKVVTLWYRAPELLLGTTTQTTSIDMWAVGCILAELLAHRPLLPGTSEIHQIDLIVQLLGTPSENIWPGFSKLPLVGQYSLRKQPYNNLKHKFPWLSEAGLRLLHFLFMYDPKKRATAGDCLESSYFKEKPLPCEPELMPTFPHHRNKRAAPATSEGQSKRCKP
UniProt Q00526: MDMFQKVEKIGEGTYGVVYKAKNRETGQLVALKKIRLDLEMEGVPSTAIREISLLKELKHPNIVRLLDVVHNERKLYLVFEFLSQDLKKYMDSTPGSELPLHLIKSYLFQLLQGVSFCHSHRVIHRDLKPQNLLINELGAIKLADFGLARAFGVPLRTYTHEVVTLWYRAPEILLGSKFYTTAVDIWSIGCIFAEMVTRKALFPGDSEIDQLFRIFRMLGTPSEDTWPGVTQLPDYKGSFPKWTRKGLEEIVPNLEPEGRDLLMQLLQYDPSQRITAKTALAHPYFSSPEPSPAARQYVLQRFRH
UniProt Q00534, whole entry: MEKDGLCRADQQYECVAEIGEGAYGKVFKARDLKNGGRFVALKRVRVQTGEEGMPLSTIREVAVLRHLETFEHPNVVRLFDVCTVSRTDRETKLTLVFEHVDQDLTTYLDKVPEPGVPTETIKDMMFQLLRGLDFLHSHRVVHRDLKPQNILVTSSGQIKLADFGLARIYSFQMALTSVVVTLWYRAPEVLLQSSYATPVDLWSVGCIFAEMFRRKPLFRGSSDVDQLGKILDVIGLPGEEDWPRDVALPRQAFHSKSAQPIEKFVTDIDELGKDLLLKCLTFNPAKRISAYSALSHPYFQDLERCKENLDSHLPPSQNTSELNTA
UniProt P07333, whole entry: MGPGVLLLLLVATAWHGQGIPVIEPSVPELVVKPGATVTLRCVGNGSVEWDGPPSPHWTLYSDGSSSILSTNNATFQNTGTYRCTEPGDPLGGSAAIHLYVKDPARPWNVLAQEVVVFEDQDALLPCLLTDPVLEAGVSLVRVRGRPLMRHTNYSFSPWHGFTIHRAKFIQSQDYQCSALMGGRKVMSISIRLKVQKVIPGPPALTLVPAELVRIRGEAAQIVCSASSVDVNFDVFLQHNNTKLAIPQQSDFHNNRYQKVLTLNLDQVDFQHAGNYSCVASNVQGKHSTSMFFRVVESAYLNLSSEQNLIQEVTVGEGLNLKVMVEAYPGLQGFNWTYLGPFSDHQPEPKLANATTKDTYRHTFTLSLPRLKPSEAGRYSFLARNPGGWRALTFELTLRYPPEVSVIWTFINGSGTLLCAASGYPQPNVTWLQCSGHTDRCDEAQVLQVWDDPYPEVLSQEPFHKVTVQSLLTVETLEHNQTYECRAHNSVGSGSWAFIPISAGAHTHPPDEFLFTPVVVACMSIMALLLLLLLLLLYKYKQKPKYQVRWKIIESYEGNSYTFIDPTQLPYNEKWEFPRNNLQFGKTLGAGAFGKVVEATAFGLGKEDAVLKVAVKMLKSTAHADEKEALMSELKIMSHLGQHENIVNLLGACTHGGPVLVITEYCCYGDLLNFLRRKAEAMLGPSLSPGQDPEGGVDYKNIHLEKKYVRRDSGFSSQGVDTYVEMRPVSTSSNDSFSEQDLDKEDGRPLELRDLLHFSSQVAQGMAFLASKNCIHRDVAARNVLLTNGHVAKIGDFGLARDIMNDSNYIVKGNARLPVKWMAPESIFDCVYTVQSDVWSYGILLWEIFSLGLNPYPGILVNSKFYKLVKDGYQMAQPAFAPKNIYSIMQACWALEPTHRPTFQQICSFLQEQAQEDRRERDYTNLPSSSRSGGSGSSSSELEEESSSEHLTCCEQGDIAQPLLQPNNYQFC
UniProt P41240: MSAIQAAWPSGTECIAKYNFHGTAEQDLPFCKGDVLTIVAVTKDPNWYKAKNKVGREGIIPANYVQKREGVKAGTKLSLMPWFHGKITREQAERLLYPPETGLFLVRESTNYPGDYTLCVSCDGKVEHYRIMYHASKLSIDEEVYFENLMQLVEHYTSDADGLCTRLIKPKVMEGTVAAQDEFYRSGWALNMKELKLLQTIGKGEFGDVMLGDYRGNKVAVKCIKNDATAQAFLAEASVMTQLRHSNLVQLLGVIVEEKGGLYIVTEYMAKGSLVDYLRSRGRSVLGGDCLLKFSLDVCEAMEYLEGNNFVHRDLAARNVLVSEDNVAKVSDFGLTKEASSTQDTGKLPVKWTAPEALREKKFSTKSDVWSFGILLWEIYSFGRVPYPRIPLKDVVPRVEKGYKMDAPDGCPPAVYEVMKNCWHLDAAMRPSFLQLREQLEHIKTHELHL

What was measured:
Experiment in all cases: number of time points (of 5) at which kinase-Nluc abundance scored as decreased, DMSO-normalised (count); higher = more persistent destabilization
Settings in all cases: K562; 2-18 h
[1] = molecular target: ALK (UniProt Q9UM73)
[2] = molecular target: ARAF (UniProt P10398)
[3] = molecular target: AURKA (UniProt O14965)
[4] = molecular target: AURKB (UniProt Q96GD4)
[5] = molecular target: AURKC (UniProt Q9UQB9)
[6] = molecular target: BLK (UniProt P51451)
[7] = molecular target: BMX (UniProt P51813)
[8] = molecular target: BRAF (UniProt P15056)
[9] = tested on: BRAF_V600E
[10] = molecular target: BTK (UniProt Q06187)
[11] = molecular target: CAMK2A (UniProt Q9UQM7)
[12] = molecular target: CAMK2G (UniProt Q13555)
[13] = molecular target: CDK10 (UniProt Q15131)
[14] = molecular target: CDK2 (UniProt P24941)
[15] = molecular target: CDK3 (UniProt Q00526)
[16] = molecular target: CDK5 (UniProt Q00535)
[17] = molecular target: CDK6 (UniProt Q00534)
[18] = molecular target: CHEK2 (UniProt O96017)
[19] = molecular target: CSF1R (UniProt P07333)
[20] = molecular target: CSK (UniProt P41240)

Measured: number of time points

CCC(C)N1c2ccccc2C(=O)N(C)c2cnc(Nc3ccc(C(=O)N4CCC(N5CCN(C)CC5)CC4)cc3OC)nc21 (stereo not given) (2.5 µM)
0: all assays above

CCc1c(C(=O)NNC(=O)C(O)c2cc(F)cc(F)c2)ccc(O)c1C (stereo not given) (10 µM)
0: all assays above

Cc1ccccc1-c1c2nccc(-c3ccc(F)cc3F)c2cc[n+]1[O-] (10 µM)
0: all assays above

CC1(C)C(O[C@@H]2OC[C@@H](O)[C@H](O)[C@H]2O)CC[C@]23CC24CC[C@]2(C)[C@@H]([C@@]5(C)CC[C@@H](C(C)(C)O)O5)[C@H](O)C[C@@]2(C)C4C[C@@H](O[C@@H]2O[C@H](CO)[C@@H](O)[C@H](O)[C@H]2O)C13 (stereo not given in full) [Astragaloside IV] (10 µM)
0: all assays above

CNC(=O)c1c(F)cccc1Nc1nc(Nc2cc3c(cc2OC)CCN3C(=O)CN(C)C)nc2[nH]ccc12 (10 µM)
4: [6]
0: all other assays above

Cc1cccc(-c2[nH]ncc2-c2ccc(F)c(-c3cnn(CCO)c3)c2)n1 (10 µM)
0: all assays above

CN(C)CCCOc1ccc(-c2ccc3ncc4c(c3c2)n(C2CCOCC2)c(=O)n4C)cn1 (2 µM)
0: all assays above

CCCCCCCCCCCCC/C=C/[C@@H](O)[C@@H](N)CO [D-erythro-Sphingosine] (2.5 µM)
0: all assays above

C=C1C(=O)O[C@H]2C[C@H](C)C(/C=C/C(C)=O)=CC[C@H]12 [Xanthatin] (2.5 µM)
0: all assays above

CC(C)(O)CNc1ncc(-c2ccnc(Nc3ccnc(Cl)c3)n2)c(CC2CC2)n1 (2.5 µM)
0: all assays above

Cn1ncc(Cl)c1-c1cc(C(=O)N[C@H](CN)Cc2ccc(F)c(F)c2)oc1Cl [Uprosertib] (10 µM)
0: all assays above

CN(C)C(=O)Cn1cc(-c2ccc(-c3cncc4ccccc34)cc2)cn1 (10 µM)
0: all assays above

Cn1cc(-c2ccc3nnc(Sc4ccc5ncccc5c4)n3n2)cn1 (10 µM)
0: all assays above

O=Nc1c(-c2c(O)[nH]c3ccc(I)cc23)[nH]c2ccccc12 [5-Iodo-indirubin-3'-monoxime] (10 µM)
4: [8]
0: all other assays above

O=C([O-])c1cc2ccccc2c(Cc2c(O)c(C(=O)[O-])cc3ccccc23)c1O.[Na+].[Na+] [Pamoic acid (disodium)] (10 µM)
0: all assays above

CNc1nc(Nc2ccc(C(=O)N3CCOCC3)cc2OC)nc2[nH]cc(Cl)c12 (2.5 µM)
0: all assays above

COc1cccc(OC)c1C(=O)OCc1cc(O)ccc1O[C@@H]1O[C@H](CO)[C@@H](O)[C@H](O)[C@H]1O [Curculigoside] (10 µM)
0: all assays above

Cc1c(NC(=O)c2cccn(-c3ccc(F)cc3)c2=O)ccc(Oc2ccnc(NC(=O)C3CC3)c2)c1C (2 µM)
3: [19]
1: [1] | [7] | [12]
0: all other assays above

CC#CC(=O)Nc1ccc2ncnc(Nc3cccc(Br)c3)c2c1 (10 µM)
1: [16] | [19]
0: all other assays above

Quoted at random: three compounds from above, in no set order.
CNc1nc(Nc2ccc(C(=O)N3CCOCC3)cc2OC)nc2[nH]cc(Cl)c12 (2.5 µM)
0: all assays above

Cc1c(NC(=O)c2cccn(-c3ccc(F)cc3)c2=O)ccc(Oc2ccnc(NC(=O)C3CC3)c2)c1C (2 µM)
3: [19]
1: [1] | [7] | [12]
0: all other assays above

CC#CC(=O)Nc1ccc2ncnc(Nc3cccc(Br)c3)c2c1 (10 µM)
1: [16] | [19]
0: all other assays above

Further results follow:

Nc1ncnc2c1c(-c1cccc(OCc3ccccc3)c1)cn2C1CC(CN2CCC2)C1 (stereo not given) (2.5 µM)
0: all assays above

NS(=O)(=O)c1ccc(-n2nc(C(F)(F)F)cc2-c2ccc(Cl)cc2)cc1 (10 µM)
0: all assays above

O=C1N[C@@H](Cc2c[nH]c3ccccc23)C(=O)N2CCC[C@@H]12 [Brevianamide F] (10 µM)
0: all assays above

COc1cc2c(cc1OC)CN(S(=O)(=O)c1ccc(OC)c(N3CCN(C(=O)c4ccc(F)cc4C(F)(F)F)CC3)c1)CC2 (10 µM)
0: all assays above

CC(C)(C)c1nc(-c2cccc(NS(=O)(=O)c3c(F)cccc3F)c2F)c(-c2ccnc(N)n2)s1 [Dabrafenib] (2.5 µM)
0: all assays above

CC(C)(C)c1cc(O)ccc1O (10 µM)
0: all assays above

Nc1cc(C(F)(F)F)c(-c2cc(N3CCOCC3)nc(N3CCOCC3)n2)cn1 [Buparlisib (Hydrochloride)] (2.5 µM)
1: [9] | [19]
0: all other assays above

CNC(=O)c1cc(COc2nnc(Nc3ccc(Cl)cc3)c3ccoc23)ccn1 [Telatinib] (10 µM)
0: all assays above

FC(F)(F)c1ccc(CNc2ccc(Cc3c[nH]c4ncccc34)cn2)cc1 (10 µM)
1: [14]
0: all other assays above

OCCn1cc(-c2ccc3c(c2)CC/C3=N\O)c(-c2ccncc2)n1 (10 µM)
0: all assays above

Nc1nc2ccc(Cl)cc2c2nc(-c3ccco3)nn12 (10 µM)
0: all assays above

O=C1Nc2ccc(C(=O)c3ccco3)cc2C1=Cc1cc(Cl)c(O)c(Cl)c1 (2.5 µM)
0: all assays above

c1cc(-c2c[nH]c3nccc(N4CCC[C@@]5(CCCCN5)C4)c23)ncn1 (10 µM)
0: all assays above

CN1CCC(c2cc(-c3ccncc3)c(-c3ccc(F)cc3)[nH]2)CC1 (10 µM)
0: all assays above

Cc1cc(=O)oc2c(C=O)c(O)ccc12 (10 µM)
0: all assays above

CN(CC(=O)N(Cc1ccc(C2CCCCC2)cc1)c1ccc(C(=O)NO)cc1)S(=O)(=O)c1c(F)c(F)c(F)c(F)c1F (2.5 µM)
0: all assays above

C=CC(=O)Nc1cccc(Nc2nc(Nc3ccc(NC4CN(CCF)C4)cc3OC)ncc2C(F)(F)F)c1 (2.5 µM)
0: all assays above

O=C(Nc1ccc(CN2CCOCC2)cc1)c1ccc(-c2cccc(Cl)c2)o1 (10 µM)
1: [9]
0: all other assays above

C=CC(=O)Nc1cc(Nc2ncc(Cl)c(-c3c[nH]c4ccccc34)n2)c(OC)cc1N(C)CCN(C)C [Mutant EGFR inhibitor] (2.5 µM)
4: [6]
2: [3] | [9]
1: [18]
0: all other assays above

COc1cc(/C=C/C(=O)NCC(O)c2ccc(O)cc2)ccc1O (stereo not given) [N-Feruloyloctopamine] (2.5 µM)
0: all assays above

Cc1cc(O)c2c(c1)C(=O)c1cc(O)cc(O)c1C2=O [Emodin] (10 µM)
0: all assays above

CCNc1nc(Nc2cc(F)c(C(=O)N3CCOCC3)cc2OC)ncc1C(F)(F)F [GNE-7915 (tosylate)] (10 µM)
0: all assays above

COc1cc2ncc(-c3ccccc3)nc2cc1OC [Tyrphostin AG1296] (10 µM)
0: all assays above

CC[C@@H](Oc1nc(Oc2cc(C)cc(-c3cccc(CN)c3)c2)c(F)cc1F)C(=O)O (10 µM)
0: all assays above

CN1CCN(c2cnc3c(C4CCN(C(=O)c5ccc(OC(F)(F)F)cc5N)CC4)ncnc3c2)CC1 (10 µM)
0: all assays above

C[C@@H]1COCCN1c1cc(C2([S@@](C)(=N)=O)CC2)nc(-c2ccnc3[nH]ccc23)n1 [(S)-Ceralasertib] (10 µM)
0: all assays above

CCS(=O)(=O)c1ncc(Cl)c(C(=O)N(Cc2ccc(Cl)cc2)Cc2ccco2)n1 (2.5 µM)
3: [3] | [6]
0: all other assays above

NC(=O)c1ccc(-c2nc(-c3ccc4c(c3)OCCO4)c(-c3ccccn3)[nH]2)cc1 (10 µM)
0: all assays above

CCOC(=O)N1CCN(C(=O)[C@H](Cc2cccc(C(=N)N)c2)NS(=O)(=O)c2c(C(C)C)cc(C(C)C)cc2C(C)C)CC1 (10 µM)
0: all assays above
